Measured values published in patent US12365709B2 (INSTITUT NATIONAL UNI[…]-FRANCOIS CHAMPOLLION, priority 2017, dated 2025).

Assay: general procedure: Fmoc solid-phase peptide synthesis
Conditions: whole synthesis

## LFKEILEKIKAKL [P17]
  purity (crude or final not stated): greater than 99%
